For some assays here: At least one result comes from cells or an extract, where the contact may be indirect. For some assays here: Tags and fusion partners may be left off the protein sequences shown. For some assays here: For at least one entry, the source does not settle the construct or the ends of the probe.

By UniProt entry, the sequences of proteins in these tests, tags left out.
UniProt Q04206, whole entry: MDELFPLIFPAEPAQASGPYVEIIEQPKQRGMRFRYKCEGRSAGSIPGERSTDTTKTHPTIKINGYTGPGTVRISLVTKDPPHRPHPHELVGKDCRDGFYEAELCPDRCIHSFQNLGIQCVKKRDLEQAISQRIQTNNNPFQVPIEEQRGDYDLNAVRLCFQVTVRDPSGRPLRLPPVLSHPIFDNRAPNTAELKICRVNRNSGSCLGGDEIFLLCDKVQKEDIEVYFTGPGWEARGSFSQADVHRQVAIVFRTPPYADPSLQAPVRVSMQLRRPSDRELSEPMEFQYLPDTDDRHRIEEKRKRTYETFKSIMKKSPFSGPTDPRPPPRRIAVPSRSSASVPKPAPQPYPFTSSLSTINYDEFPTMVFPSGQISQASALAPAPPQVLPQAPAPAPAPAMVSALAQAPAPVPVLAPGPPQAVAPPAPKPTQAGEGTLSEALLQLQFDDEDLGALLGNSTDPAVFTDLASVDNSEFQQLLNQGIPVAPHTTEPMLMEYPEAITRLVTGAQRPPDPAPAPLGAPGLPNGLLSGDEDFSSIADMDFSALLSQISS

The text below walks through data of patent publication US20050265970.

One data set addresses RelA (p65) (Homo sapiens?) (UniProt Q04206). The data set is described as follows: activity in cells. The settings on record: delta56-CAT reporter, protein in cells, protein details: pMT2T-RelA in NTera-2 cells.
Data set [1] has as its target T1, NF-kB p50 (p50/p50 homodimer) (UniProt P19838).
T1 sequence (looked up, limits assumed): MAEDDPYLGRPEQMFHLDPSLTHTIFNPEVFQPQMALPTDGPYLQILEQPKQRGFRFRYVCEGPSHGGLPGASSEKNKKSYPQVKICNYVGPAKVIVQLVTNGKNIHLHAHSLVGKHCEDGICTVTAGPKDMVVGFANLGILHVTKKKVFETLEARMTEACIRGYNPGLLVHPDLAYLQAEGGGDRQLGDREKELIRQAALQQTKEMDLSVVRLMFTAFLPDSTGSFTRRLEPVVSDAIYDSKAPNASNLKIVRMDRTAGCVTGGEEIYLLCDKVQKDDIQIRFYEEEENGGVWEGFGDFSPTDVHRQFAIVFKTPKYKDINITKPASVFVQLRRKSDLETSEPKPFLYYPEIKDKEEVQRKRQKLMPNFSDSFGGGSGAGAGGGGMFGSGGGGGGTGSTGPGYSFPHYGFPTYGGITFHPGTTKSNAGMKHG
The experiment in a line: EMSA. The settings on record: supershifted by anti-p50, protein in a lysate after overexpression, protein details: pMT2T-p50 transfected NTera-2 whole cell extract, label: 32P. (In EMSA bound probe runs differently from free probe, usually more slowly.)

For data set [2], the system named is NF-kB p50/RelA heterodimer. The data set is described as follows: EMSA. The settings on record: supershifted by anti-p50 and anti-RelA, protein in a lysate after overexpression, label: 32P.
The subject of data set [3] is endogenous NF-kB complexes. The data set is described as follows: EMSA. The settings on record: 20 mM HEPES pH 7.9, 100 mM KCl, polydI-dC; protein in an extract; label: 32P.

Turning to “GATCTCTAGGGACTCTCCGGGGACAGCGAGGGGATTCCAGACC (double strand) [kB-1/2 reporter oligonucleotide]”, the “activity on this sequence” value in the data set with RelA (p65) (induced more than kB-3) is “active”.

Regarding “GATCTGAATTCGCTGGAAACCCCGCAC (double strand) [kB-3 reporter oligonucleotide]”, the “activity on this sequence” value in the data set with RelA (p65) (strongly RelA responsive) is given as “active”.

In the case of “GGAAACCCCG (double strand) [gadd45b kB-3 site]”, the binding result in data set [1] (poorest of three sites with p50 homodimer), in data set [2] (stronger than kB-1) and in data set [3] was “binds” throughout.

“GGGGATTCCA (double strand) [gadd45b kB-2 site]”: the binding result in data set [1] (strongest signal with p50 homodimer), in data set [2] (stronger than kB-1) and in data set [3] was “binds” throughout.

In the case of “TAGGGACTCTCC (double strand) [gadd45b kB-1 site]”, the binding result in data set [1] (intermediate signal between kB-2 and kB-3) was “binds”; in data set [2] (weaker signal than kB-2 and kB-3), “binds”; in data set [3] it was “binds”.
